According to PubChem BioAssay AID1671190 (National Center for Advancing Translational Sciences (NCATS), 2021):
About 6,100 (1.1%) of roughly 580,000 compounds were called active. Another 15% or so got no clear call; they are omitted. The call rests on the fitted dose curve; in most records, active means well fitted inhibition curve with a large enough effect; inconclusive means small, poorly fitted or top-dose-only effect, or another doubt; inactive means no such curve, though single readings can be large or run the other way. Only a part is listed here, and it is no random draw. Entries without a call were filed so in the source.

Sequences of proteins named here, by UniProt entry; tags and fusion partners are left off. A change or cut given only in a name is not applied to a line headed by its entry.
UniProt P18054: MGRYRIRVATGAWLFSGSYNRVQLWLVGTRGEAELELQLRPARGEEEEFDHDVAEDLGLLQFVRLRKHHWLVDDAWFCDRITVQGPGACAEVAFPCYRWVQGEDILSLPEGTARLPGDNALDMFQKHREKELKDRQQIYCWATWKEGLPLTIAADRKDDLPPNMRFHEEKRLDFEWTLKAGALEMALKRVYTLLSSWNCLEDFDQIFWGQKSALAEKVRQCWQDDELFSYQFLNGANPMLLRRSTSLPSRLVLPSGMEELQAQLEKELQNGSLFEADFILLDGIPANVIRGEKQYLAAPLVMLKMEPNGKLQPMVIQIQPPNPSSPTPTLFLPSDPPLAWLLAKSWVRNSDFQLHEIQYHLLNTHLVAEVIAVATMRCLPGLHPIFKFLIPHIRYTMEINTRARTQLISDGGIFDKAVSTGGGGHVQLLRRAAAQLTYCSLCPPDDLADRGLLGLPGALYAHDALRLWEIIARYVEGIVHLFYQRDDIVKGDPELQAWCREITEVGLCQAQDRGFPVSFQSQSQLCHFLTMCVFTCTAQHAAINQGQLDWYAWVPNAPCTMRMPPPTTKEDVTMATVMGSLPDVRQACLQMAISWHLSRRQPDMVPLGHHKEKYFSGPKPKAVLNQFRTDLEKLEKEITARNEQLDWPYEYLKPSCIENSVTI

target: Polyunsaturated fatty acid lipoxygenase ALOX12 (Homo sapiens) (UniProt P18054); test: Primary qHTS assay for inhibitors of human arachidonate 12S-lipoxygenase (ALOX12): Round 2; conditions: purified 12hLO, xylenol orange hydroperoxide absorbance; activity change, negative = inhibition: at 0.00344 µM unless noted
Procedure, shortened: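 Purified human 12hLO at 150 nM in 25 mM Hepes, 0.01% Triton X-100, pH 7.0, preincubated 15 min at room temperature with compound. Reaction started with 40 uM arachidonic acid, 30 min at room temperature. Hydroperoxide measured by Fe-xylenol orange, 573/405 nm absorbance ratio.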
On the % scale 0 is the no-effect control and ±100 the full control effect; potency means the concentration at half of the fitted maximal effect.

SMILES	Potency	activity change, negative = inhibition
Cl/C(=C/c1ccc(Cl)cc1)c1ncc(-c2ccc(Cl)cc2)o1	active: 35.5 µM	
FC(F)(F)C(F)(F)C(F)(F)C(F)(F)C(F)(F)C(F)(F)C(F)(F)C(F)(F)Br		-24.8%
CN(C)CCC[C@@]1(c2ccc(F)cc2)OCc2cc(C#N)ccc21		16.7%
CC(=O)Oc1cccc(O)c1		51.8%
Cc1cc2c(cc1C)CSC(c1c(O)ccc3cc(Br)ccc13)SC2	active: 0.794 µM	
CCCc1c(OCCCCc2nn[nH]n2)ccc(C(C)=O)c1O		11%
CO[C@@H]1[C@@H](OC(N)=O)[C@@H](O)[C@H](Oc2ccc3c(O)c(NC(=O)c4ccc(O)c(CC=C(C)C)c4)c(=O)oc3c2C)OC1(C)C		3.06%
CCOc1ccc2c(c1)cc(C(=O)NCc1ccco1)n2C	active: 17.8 µM	
CC(C)[C@H](N)C(=O)OCCOCn1cnc2c(=O)[nH]c(N)nc21		13.8%
CCC[C@H](N[C@@H](C)C(=O)N1[C@H](C(=O)O)C[C@@H]2CCCC[C@@H]21)C(=O)OCC		-19.7%
Nc1ccc(C(=O)NCC(=O)O)cc1		-20.5%
CC1(C)OC(=O)NC1=O		9.84%
Cc1ccc(/C(O)=C2\C(=O)C(=O)N(CC(C)O)C2c2cccc(F)c2)cc1 (configuration not stated)	active: 17.8 µM	
CN(C)c1ccc(NCc2cccc(Br)c2)cc1	active: 7.94 µM	
Cc1ccc2nc(N3C(=O)C(O)=C(C(=O)c4ccco4)C3c3ccc(O)cc3)sc2c1 (configuration not stated)	active: 22.4 µM	
CC(=O)Oc1cccc2c1C(=O)c1c(OC(C)=O)cc(C(=O)O)cc1C2=O		33.9%
Cc1ncc(CSSCc2cnc(C)c(O)c2CO)c(CO)c1O		-13.1%
COc1ccc2c(c1)c(CC(=O)OC/C=C(\C)CC/C=C(\C)CCC=C(C)C)c(C)n2C(=O)c1ccc(Cl)cc1		0.441%
O=S(=O)(O)NC1CCCCC1		-56.1%
CC(C)NC[C@@H](O)COc1cccc2ccccc12		-66.7%
O=C(CS(=O)Cc1ccco1)NC/C=C\COc1cc(CN2CCCCC2)ccn1 (configuration not stated)		-18%

SMILES	Potency	activity change, negative = inhibition
CCCCC(CC)COC(=O)/C=C/c1ccc(OC)cc1 (configuration not stated)		-28.5%
Cc1c(N(C)CS(=O)(=O)O)c(=O)n(-c2ccccc2)n1C		-15.1%
COc1ccc(CCN(C)CCCC(C#N)(c2cc(OC)c(OC)c(OC)c2)C(C)C)cc1OC (configuration not stated)		-30.9%
Nc1cc(C(Cl)=C(Cl)Cl)c(S(N)(=O)=O)cc1S(N)(=O)=O		25%
CC(C)C[C@H](NC(=O)CNC(=O)[C@H](Cc1ccc(O)cc1)NC(=O)[C@H](CO)NC(=O)[C@H](Cc1c[nH]c2ccccc12)NC(=O)[C@H](Cc1cnc[nH]1)NC(=O)[C@@H]1CCC(=O)N1)C(=O)N[C@@H](CCCN=C(N)N)C(=O)N1CCC[C@H]1C(=O)NCC(N)=O (stereo in doubt)		-6.87%
CC1(C)S[C@@H]2[C@H](NC(=O)Cc3ccccc3)C(=O)N2[C@H]1C(=O)O (tested in a mixture with another compound)		51.1%
NC(=O)NS(=O)(=O)c1ccc(Cl)cc1		45.8%
C[N+](C)(C)CC[N+]1(C)Cc2c(Cl)c(Cl)c(Cl)c(Cl)c2C1		1.03%
O=C(N/N=C\C=C\c1ccco1)c1cc(-c2ccc3ccccc3c2)n[nH]1	active: 39.8 µM	
Cc1ccccc1OCC(=O)OCC(=O)Nc1ncc(Cl)c(C)c1Cl	active: 8.91 µM	
Nc1nc(=S)c2[nH]cnc2[nH]1		1.87%
COc1cc(C(=O)NC(=S)NC(C)C)cc(OC)c1OC	active: 35.5 µM	
CC(=O)[C@]1(O)Cc2c(O)c3c(c(O)c2[C@@H](O[C@H]2C[C@H](N)[C@H](O)[C@H](C)O2)C1)C(=O)c1ccccc1C3=O		14.1%
COc1ccc(C2CNC(=O)C2)cc1OC1CCCC1 (configuration not stated)		-15.7%
CC(=O)O[C@@H]1CC2C3CCc4cc(OC(=O)c5ccccc5)ccc4C3CCC2(C)[C@H]1OC(C)=O (some centres not stated)		-2.09%
CC[C@@H](NC(=O)[C@@H](Cc1ccccc1)NC(=O)CC[C@H]1O[C@@H](n2ccc(=O)[nH]c2=O)[C@H](O)[C@@H]1O)c1ccccc1	active: 31.6 µM	
COc1cccc(CC(=O)N2CCC3(CC2)NC(=O)N(c2cccc(Cl)c2)N3)c1	active: 1.41 µM	
COc1ccccc1CNS(=O)(=O)c1cc(CN2C(=O)c3cccnc3C2=O)ccc1OC	active: 35.5 µM	
CN1C[C@H]2c3ccccc3Oc3ccc(Cl)cc3[C@@H]2C1		9.1%
c1ccc([C@H]2CN3CCSC3=N2)cc1		25.5%
CCOC(=O)N1CCC(n2c(=O)[nH]c3cc(Cl)ccc32)CC1		2.62%

Grouped by structure, the compounds so far with a COOH group
SMILES	Potency	activity change, negative = inhibition
CCC[C@H](N[C@@H](C)C(=O)N1[C@H](C(=O)O)C[C@@H]2CCCC[C@@H]21)C(=O)OCC		-19.7%
Nc1ccc(C(=O)NCC(=O)O)cc1		-20.5%
CC(=O)Oc1cccc2c1C(=O)c1c(OC(C)=O)cc(C(=O)O)cc1C2=O		33.9%
CC1(C)S[C@@H]2[C@H](NC(=O)Cc3ccccc3)C(=O)N2[C@H]1C(=O)O (tested in a mixture with another compound)		51.1%

(cont.)

SMILES	Potency	activity change, negative = inhibition
O=C(Nc1ccc(Oc2ccc(Cl)cc2)c(Cl)c1)c1cc(I)cc(I)c1O		49.9%
CCOC(=O)[C@H](CCc1ccccc1)N[C@H]1CS[C@H](c2cccs2)CN(CC(=O)O)C1=O		11.1%
Cc1ccc(O)cc1		52%
Cc1cc(C)nc(/N=c2/ssnc2Cl)c1	active: 8.91 µM	
Cc1ccc(CN2CCN(C(=O)c3cccc4ccccc34)CC2)cc1	active: 1.26 µM	
Clc1cccc(C(c2ccc3nc[nH]c3c2)n2ccnc2)c1 (configuration not stated)		-14.5%
O=C(O)C(c1c[nH]c2cc(Cl)ccc12)N1CCN(CCOc2ccc(Cl)cc2)CC1 (configuration not stated)	active: 35.5 µM	
CC(C)NCC(O)c1ccc2ccccc2c1 (configuration not stated)		2.68%
Cc1nc(NCc2ccc3c(c2)OCO3)c2oc3ccccc3c2n1	active: 22.4 µM	
N=C(N)c1ccc2cc(OC(=O)c3ccc(N=C(N)N)cc3)ccc2c1		20.1%
Cc1cccc(C)c1NC(=S)NC(=O)c1cccc(Cl)c1	active: 31.6 µM	
CC(C)=CCC/C(C)=C/CO		-5.73%
COC(=O)Nc1nc2ccc(S(=O)c3ccccc3)cc2[nH]1 (configuration not stated)		19.5%
CCn1cc(C(=O)O)c(=O)c2cc3c(cc21)OCO3		-2.24% [at 0.00147 µM]
Cc1cc(=O)oc2cc(O[C@@H]3SC[C@@H](O)[C@H](O)[C@H]3O)ccc12		-3.83%
CC(=O)NCCNc1ncncc1-c1ccc(N(C)C)cc1	active: 44.7 µM	
O=C1CC2(CCCC2)CC(=O)N1CCCCN1CCN(c2ncccn2)CC1		27%
Cc1ccc2ccc(Cl)cc2n1		-13.1%
O=c1cc[nH]c(=S)[nH]1		-28.9%
CC(C)(C)C1CCC(CC2=C(O)c3ccccc3C(=O)C2=O)CC1 (configuration not stated)		14.6%
